Values quoted from earlier work as cited in US10369145B2, “Coumarin derivatives and methods of use in treating hyperproliferative diseases” (DISCOVERYBIOMED, INC., priority 2013, dated 2019).
Some of these results come from one statement about several compounds together.

System: NCI-60 cell panel
Details: drug-responsive cells found within the NCI-60 panel; cited from earlier work

| SMILES | GI50 |
| --- | --- |
| CC[C@]1(O)C[C@H]2CN(CCc3c([nH]c4ccccc34)[C@@](C(=O)OC)(c3cc4c(cc3OC)N(C=O)[C@H]3[C@@](O)(C(=O)OC)[C@H](OC(C)=O)[C@]5(CC)C=CCN6CC[C@]43[C@@H]65)C2)C1 [vincristine, reference compound] | 1 to 10 nM |
| CC(=O)O[C@H]1C(=O)[C@@]2(C)[C@H]([C@H](OC(=O)c3ccccc3)[C@]3(O)C[C@H](OC(=O)[C@H](O)[C@@H](NC(=O)c4ccccc4)c4ccccc4)C(C)=C1C3(C)C)[C@]1(OC(C)=O)CO[C@@H]1C[C@@H]2O [paclitaxel, reference compound] | 1 to 10 nM |
